Measurements published in PubChem BioAssay AID2551 (National Center for Advancing Translational Sciences (NCATS), 2010).
Among all 310,000 compounds or so, about 17,000 (5.5%) were called active. The inconclusive results got no clear call from the source; some entries with a clear call stand among them for comparison. Calls come from the whole dose curve; as a rule, active = well fitted inhibition curve with a large enough effect; inconclusive = small, poorly fitted or top-dose-only effect, or effect the other way; inactive = no such curve, though single readings can be large or run the other way. A potency beside an inconclusive call is a rough fit, not a confirmed value.

Chains of the proteins cited; added tags and fusions are not shown. Lines headed by an entry give the natural chain unless they say otherwise; changes in a name come on top.
UniProt P51450: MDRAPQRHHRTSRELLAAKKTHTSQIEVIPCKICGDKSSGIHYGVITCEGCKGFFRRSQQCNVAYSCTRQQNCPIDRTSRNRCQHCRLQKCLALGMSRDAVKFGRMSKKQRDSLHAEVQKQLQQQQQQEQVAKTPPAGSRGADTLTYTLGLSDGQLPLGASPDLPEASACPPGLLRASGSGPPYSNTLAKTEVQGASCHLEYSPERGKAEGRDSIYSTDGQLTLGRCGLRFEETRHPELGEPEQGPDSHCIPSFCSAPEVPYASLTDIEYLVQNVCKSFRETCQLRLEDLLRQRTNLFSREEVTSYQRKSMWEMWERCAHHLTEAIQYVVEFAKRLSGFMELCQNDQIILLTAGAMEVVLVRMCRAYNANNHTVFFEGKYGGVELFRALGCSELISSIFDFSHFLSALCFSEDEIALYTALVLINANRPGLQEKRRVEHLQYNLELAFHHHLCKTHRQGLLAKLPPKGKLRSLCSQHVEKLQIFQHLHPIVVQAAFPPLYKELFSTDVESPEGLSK

Target: Nuclear receptor ROR-gamma (Mus musculus) (UniProt P51450)
Assay: qHTS for inhibitors of ROR gamma transcriptional activity; note: nearly all actives have a fitted effect of over 60% in size
Settings: Drosophila S2 Gal4-RORgamma UAS-luciferase reporter, 20 h; activity change, negative = inhibition: at 53.6 µM (top of the series)
How it was run: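 Luciferase reporter read in Schneider cells carrying Gal4-RORγ (mouse) and UAS-Photinus luciferase; cells given compound 1 h before 700 uM copper sulfate induction, then incubated 20 h at ambient temperature.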
% is set by controls: 0 for no effect and ±100 for the full control effect; potency is the fitted concentration of half-maximal effect.

| Structure (SMILES) | activity change, negative = inhibition | Potency |
| --- | --- | --- |
| CCN1CCc2nc3sc(C(=O)Nc4cccnc4Cl)c(N)c3cc2C1 | inactive: -25.5% | – |
| O=C(CSc1nccn1-c1ccccc1)c1ccc(Cl)cc1 | – | inconclusive: 22.4 µM [inhibitor, single point] |
| CCOC(=O)c1c(NC(=O)c2cccs2)sc2c1CC(C)(C)OC2 | inactive: 8.13% [at 10 µM] | – |
| Cc1ccc(S(=O)(=O)N2CCN(CC(=O)N/N=C/c3ccccc3OCC(=O)O)CC2)cc1 | inactive: 26.6% | – |
| Cc1cc2c(cc1S(=O)(=O)NCc1ccccc1)n(C)c(=O)c(=O)n2C | – | inconclusive: 2 µM [activator, partial curve, poor fit] |
| CCN1C(=O)N/C(=C/c2cc(C)n(Cc3ccccc3)c2C)C1=O | – | inconclusive: 7.08 µM [activator, partial curve] |
| O=C(COC(=O)Cc1ccc(-c2ccccc2)cc1)NCc1ccc(F)cc1 | inactive: 26.1% | – |
| COc1ccc(Br)cc1/C=N/NC(=O)CNC(=O)C1COc2ccccc2O1 (centres undefined) | inactive: -33.9% | – |
| Cc1ccc(NC(=O)C2=C(O)CCn3c2nc2ccccc23)cc1 | – | active: 4.47 µM |
| CCCCNC(=O)[C@H]1C[C@H]1[C@@H](O)[C@H](CO)NC(=O)[C@H](Cc1ccccc1)NC(=O)OC(C)(C)C | inactive: -6.57% | – |
| O=C(Nc1ccc(O)c(-c2nc3ccccc3s2)c1)c1cc(=O)c2ccccc2o1 | inactive: 0.49% | – |
| Cc1cc(C)c(C#N)c(SCC(=O)c2cccs2)n1 | inactive: 38.1% | – |
| C=CCSc1nc(O)c(CC)c(=O)n1C(C)CC (centres undefined) | – | inconclusive: 8.91 µM [inhibitor, single point] |
| COc1ccc(Cn2c(C3CCCCC3)nc3c(c(=O)c4ccccc4n3C)c2=O)cc1 | inactive: -13.1% | – |
| Cc1cccc(NC(=S)N/N=C(\c2ccccc2)C(C)C)c1 | – | active: 4.47 µM |
| CSc1nc(-c2ccc(Cl)cc2)nn1C(=O)c1ccccc1 | – | inconclusive: 8.91 µM [activator, partial curve, poor fit] |
| Cc1nc2ccccc2n1CC(=O)OCC(=O)NC1CC1 | inactive: 1.6% | – |
| O=C(COc1ccc(Cl)cc1)Nc1ccc(Cl)cn1 | – | inconclusive: 4.47 µM [activator, partial curve] |
| COc1ccc(/C=N/NC(=O)CCSc2nc3ccccc3s2)cc1 | inactive: 154% | – |
| COc1ccc(CC(=O)Nc2cccc3ccccc23)cc1OC | – | inconclusive: 25.1 µM [activator, single point] |
| c1ccc(-c2noc(-c3ccc4ccccc4c3)n2)cc1 | – | active: 3.55 µM |
| COc1ccc(CCNC(=S)Nc2ccc(C(C)C)cc2)cc1 | – | active: 2.51 µM |
| FC(F)(F)c1cccc(Cn2cnc(NC(=S)NCCc3ccccc3)n2)c1 | – | inconclusive: 7.08 µM [inhibitor, partial curve, poor fit] |
| COc1ccc(NC(=S)N(CCN2CCOCC2)Cc2ccccc2F)cc1 | – | inconclusive: 35.5 µM [inhibitor, partial curve, poor fit] |
| COCCNC(=O)NC(=O)COC(=O)C1(c2ccc(Cl)cc2)CC1 | – | inconclusive: 10 µM [activator, partial curve] |

| Structure (SMILES) | activity change, negative = inhibition | Potency |
| --- | --- | --- |
| Cc1ccccc1Nc1nc(N)nc(COC(=O)c2cccn2C)n1 | – | inconclusive: 0.316 µM [activator, partial curve, poor fit] |
| CC(C)OCCCNc1ncnc2c1cnn2-c1ccccc1 | – | inconclusive: 7.94 µM [inhibitor, partial curve] |
| CCCCn1cc(S(=O)(=O)c2ccccc2)c(=O)c2cc(C)ccc21 | inactive: 10.6% | – |
| N#CCOc1nc(N2CCCCC2)nc(N2CCCCC2)n1 | inactive: 19.6% | – |
| Cc1cccc(N2C(=O)SC(N(CC(=O)O)c3cccc(C)c3)C2=O)c1 (centres undefined) | – | inconclusive: 35.5 µM [activator, single point] |
| CC(=O)c1c(C)[nH]c(C(=O)Nc2nc(C)cs2)c1C | – | active: 4.47 µM |
| CC(=O)c1c(C)[nH]c(C(=O)OCc2ccc(Br)cc2)c1C | – | inconclusive: 12.6 µM [activator, partial curve] |
| Cc1ccccc1C(=O)NCCNC(=O)c1ccccn1 | – | inconclusive: 0.501 µM [activator, single point] |
| CCOC(=O)c1ccc(NC(=S)Nc2ccccc2)cc1 | – | inconclusive: 12.6 µM [inhibitor, single point] |
| O=C(NC(=S)NCc1ccco1)c1ccccc1 | inactive: 13.3% | – |
| O=C(COc1ccc([N+](=O)[O-])cc1)N/N=C/c1cc([N+](=O)[O-])ccc1N1CCOCC1 | – | inconclusive: 0.158 µM [activator, full curve, poor fit] |
| CNC(=S)NNC(=O)COc1ccc(C)c(C)c1 | – | active: 6.31 µM |
| Cc1cccc(NC(=O)CN2CCN(CC(=O)Nc3ccc(-c4ccccc4)cc3)CC2)c1C | – | inconclusive: 35.5 µM [activator, single point] |
| O=[N+]([O-])c1ccc(S(=O)(=O)c2ccccc2)nc1 | – | inconclusive: 3.55 µM [inhibitor, single point] |
| Cc1nc(-c2cccs2)sc1C(=O)NN | – | inconclusive: 20 µM [inhibitor, single point] |
| S=c1[nH]nc(-c2cc(-c3ccccc3)n[nH]2)n1/N=C/c1cccc(Cl)c1 | – | inconclusive: 14.1 µM [inhibitor, partial curve, poor fit] |
| CC(Sc1ncnc2ccccc12)C(=O)Nc1ccc2c(c1)OCCO2 (centres undefined) | – | inconclusive: 25.1 µM [activator, single point] |
| Cc1c(Cc2ccccc2)sc(NC(=O)C(C)(C)C)c1C(N)=O | – | inconclusive: 12.6 µM [activator, partial curve] |
| COc1ccc(CC(=O)Nc2ccc(-c3noc(COc4ccccc4C)n3)cc2)cc1 | – | inconclusive: 14.1 µM [inhibitor, partial curve] |
| CCOC(=O)Cc1csc(N/N=C/c2cccc([N+](=O)[O-])c2)n1 | – | inconclusive: 1.78 µM [inhibitor, single point] |
| N#Cc1ccsc1NC(=O)CCN1CCN(C(c2ccccc2)c2ccccc2)CC1 | inactive: -28.6% | – |
| CC(=O)Nc1nc(C)c(-c2csc(Nc3cccc([N+](=O)[O-])c3)n2)s1 | inactive: -23.7% | – |
| Cc1ccc(NC(=O)c2nc[nH]c2C(=O)N[C@@H](CCCCNC(=O)OC(C)(C)C)C(=O)OC(C)(C)C)cc1 | – | active: 8.91 µM |
| COc1cccc(Nc2ncnc3sccc23)c1 | inactive: 6.66% | – |
| COCCn1c(=S)[nH]c2cc(C(=O)N(CCO)Cc3ccccc3)ccc2c1=O | – | active: 11.2 µM |

A draw from above in order of molar mass, rising:

| Structure (SMILES) | activity change, negative = inhibition | Potency |
| --- | --- | --- |
| Cc1nc(-c2cccs2)sc1C(=O)NN | – | inconclusive: 20 µM [inhibitor, single point] |
| Cc1ccccc1Nc1nc(N)nc(COC(=O)c2cccn2C)n1 | – | inconclusive: 0.316 µM [activator, partial curve, poor fit] |
| N#Cc1ccsc1NC(=O)CCN1CCN(C(c2ccccc2)c2ccccc2)CC1 | inactive: -28.6% | – |

Next compounds follow:

| Structure (SMILES) | activity change, negative = inhibition | Potency |
| --- | --- | --- |
| NC(=O)CSc1nnnn1-c1ccc(OC(F)(F)F)cc1 | – | inconclusive: 12.6 µM [activator, partial curve] |
| CCN(CC)S(=O)(=O)c1ccc(OC)c(NC(=O)c2cc3c(=O)n4ccccc4nc3s2)c1 | – | inconclusive: 35.5 µM [activator, single point] |
| O=C(c1[nH]nc2c1CCc1ccccc1-2)N1CCN(Cc2ccc3c(c2)OCO3)CC1 | – | inconclusive: 11.2 µM [activator, partial curve] |
| O=c1/c(=C/c2ccc([N+](=O)[O-])cc2)sc2n1CCCN=2 | – | inconclusive: 3.55 µM [activator, partial curve] |
| Cc1ccc(/C=N/NC(=O)NN(C)c2ncc(C(F)(F)F)cc2Cl)cc1 | – | inconclusive: 35.5 µM [inhibitor, single point] |
| CC(C)(C)c1ccc(/C=N/OCC(=O)NCc2ccc(F)cc2)cc1 | – | inconclusive: 8.91 µM [activator, partial curve] |
| O=C(Nc1cccc(F)c1)N1CCC2(CC1)CCN(S(=O)(=O)c1ccccc1)CC2 | – | inconclusive: 35.5 µM [activator, single point] |
| COc1ccc(C(=O)CC(=O)c2ccccc2O)cc1 | – | active: 7.94 µM |
| COc1ccc(C2=CSC3=NCCN23)cc1F | inactive: -29.3% | – |
| O=C(Nc1ccncc1)C1c2ccccc2Oc2ccccc21 | – | inconclusive: 0.355 µM [activator, partial curve, poor fit] |
| CSc1ccccc1NC(=O)COc1ccc(Cl)cc1Cl | – | inconclusive: 35.5 µM [activator, single point] |
| Cc1ccc(OCC(=O)NCCNC(=O)c2cnccn2)cc1 | inactive: 8.54% | – |
| COc1cccc(C(=O)Oc2cc3c4c(c2)C(C)=CC(C)(C)N4C(=O)C3=O)c1 | – | inconclusive: 31.6 µM [activator, single point] |
| S=C(NCc1ccc2c(c1)OCO2)NC1CC1 | – | active: 12.6 µM |
| Cc1ccc(-c2ccc(/C=C3/NC(=O)NC3=O)o2)cc1[N+](=O)[O-] | inactive: 14.1% | – |
| COCCCn1c(=S)[nH]c2sc3c(c2c1=O)CCCC3 | – | active: 0.794 µM |
| Cc1csc2c(N3CCN(C(=O)NC(C)(C)C)CC3)ncnc12 | inactive: 30% | – |
| O=C(c1cc2ccccc2o1)c1nc2c(n1O)CCCCC2 | – | inconclusive: 35.5 µM [inhibitor, single point] |
| C=C(C)CSc1ncc(-c2cccc(C(F)(F)F)c2)cn1 | – | inconclusive: 35.5 µM [inhibitor, single point] |
| CCC(NC(=O)c1ccccc1NC(=O)c1ccccc1)C(=O)OC (centres undefined) | – | inconclusive: 4.47 µM [inhibitor, partial curve, poor fit] |
| CC(=O)NCC(=O)NC1CCCc2c1cnn2-c1ccc(C(C)(C)C)cc1 (centres undefined) | – | inconclusive: 12.6 µM [activator, partial curve] |
| CCN(CC)c1ccc(/C=N/NC(=O)c2cccc(S(=O)(=O)N3CCOCC3)c2)cc1 | – | active: 15.8 µM |
| CCN(CC)C(=O)c1ccccc1NS(=O)(=O)c1ccc(C)cc1 | – | inconclusive: 0.501 µM [inhibitor, single point] |
| Cc1ccc(NS(=O)(=O)c2ccc(NC(=O)C(C)Sc3ccc(Cl)cc3)cc2)c(C)c1 (centres undefined) | – | inconclusive: 35.5 µM [inhibitor, single point] |

In a second layout: results already given.
Structure (SMILES)	activity change, negative = inhibition	Potency
CCOC(=O)c1c(NC(=O)c2cccs2)sc2c1CC(C)(C)OC2	inactive: 8.13% [at 10 µM]	–
Cc1ccc(S(=O)(=O)N2CCN(CC(=O)N/N=C/c3ccccc3OCC(=O)O)CC2)cc1	inactive: 26.6%	–
